Assay results from the supplement of paper PMC12823440, “Inhibitors supercharge kinase turnover through native proteolytic circuits” (Nature, 2025).
Some of the results follow. Hit calls seldom repeat between salt and free forms of one compound.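 Kinases, fused to nanoluciferase, were expressed in K562 cells; luminescence was measured every 4 h from 2 to 18 h as percent of control (DMSO = 100%, positive control = 0%). A time point is decreased if signal falls significantly (2 sigma). Hits were called by the authors by a rule that is not shown; the count of time points alone does not decide it.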

Sequences of proteins named here, by UniProt entry; tags and fusion partners are left off. A change or cut given only in a name is not applied to a line headed by its entry.
UniProt P10398: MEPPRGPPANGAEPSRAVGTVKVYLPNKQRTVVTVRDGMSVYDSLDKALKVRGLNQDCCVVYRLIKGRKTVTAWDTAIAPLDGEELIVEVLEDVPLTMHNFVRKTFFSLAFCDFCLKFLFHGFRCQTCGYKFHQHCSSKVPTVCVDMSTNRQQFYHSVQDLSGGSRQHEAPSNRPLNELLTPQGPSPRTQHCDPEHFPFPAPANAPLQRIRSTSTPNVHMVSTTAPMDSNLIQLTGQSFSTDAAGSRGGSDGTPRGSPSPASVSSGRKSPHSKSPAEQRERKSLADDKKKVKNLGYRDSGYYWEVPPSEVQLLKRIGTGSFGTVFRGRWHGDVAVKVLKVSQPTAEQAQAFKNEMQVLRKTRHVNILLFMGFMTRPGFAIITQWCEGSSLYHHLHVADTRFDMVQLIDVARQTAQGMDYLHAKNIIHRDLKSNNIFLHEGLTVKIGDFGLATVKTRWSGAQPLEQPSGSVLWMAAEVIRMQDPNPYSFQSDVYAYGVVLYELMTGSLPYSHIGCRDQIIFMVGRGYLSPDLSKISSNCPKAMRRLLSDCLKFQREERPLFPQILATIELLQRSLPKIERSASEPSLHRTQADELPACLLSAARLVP
UniProt Q9UQB9: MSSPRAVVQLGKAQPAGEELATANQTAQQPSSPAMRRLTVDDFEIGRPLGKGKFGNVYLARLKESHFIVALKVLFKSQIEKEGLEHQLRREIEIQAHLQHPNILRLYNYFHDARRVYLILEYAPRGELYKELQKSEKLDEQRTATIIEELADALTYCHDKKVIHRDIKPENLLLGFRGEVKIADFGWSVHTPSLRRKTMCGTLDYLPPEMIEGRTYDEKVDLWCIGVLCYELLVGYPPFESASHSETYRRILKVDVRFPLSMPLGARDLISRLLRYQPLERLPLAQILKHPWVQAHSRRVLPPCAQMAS
UniProt P51451: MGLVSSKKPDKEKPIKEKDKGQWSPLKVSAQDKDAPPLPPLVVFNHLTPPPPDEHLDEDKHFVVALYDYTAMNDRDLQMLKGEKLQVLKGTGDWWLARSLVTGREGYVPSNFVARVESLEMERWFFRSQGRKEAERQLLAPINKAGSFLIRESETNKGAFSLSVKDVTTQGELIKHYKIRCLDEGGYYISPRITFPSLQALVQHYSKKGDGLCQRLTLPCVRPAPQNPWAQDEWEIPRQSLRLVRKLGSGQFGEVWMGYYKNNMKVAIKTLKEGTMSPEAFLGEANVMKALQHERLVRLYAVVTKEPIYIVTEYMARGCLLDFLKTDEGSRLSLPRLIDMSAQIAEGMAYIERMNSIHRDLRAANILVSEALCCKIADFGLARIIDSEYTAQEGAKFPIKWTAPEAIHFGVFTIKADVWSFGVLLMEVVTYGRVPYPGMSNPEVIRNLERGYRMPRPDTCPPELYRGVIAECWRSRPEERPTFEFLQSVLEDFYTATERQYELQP
UniProt P51813: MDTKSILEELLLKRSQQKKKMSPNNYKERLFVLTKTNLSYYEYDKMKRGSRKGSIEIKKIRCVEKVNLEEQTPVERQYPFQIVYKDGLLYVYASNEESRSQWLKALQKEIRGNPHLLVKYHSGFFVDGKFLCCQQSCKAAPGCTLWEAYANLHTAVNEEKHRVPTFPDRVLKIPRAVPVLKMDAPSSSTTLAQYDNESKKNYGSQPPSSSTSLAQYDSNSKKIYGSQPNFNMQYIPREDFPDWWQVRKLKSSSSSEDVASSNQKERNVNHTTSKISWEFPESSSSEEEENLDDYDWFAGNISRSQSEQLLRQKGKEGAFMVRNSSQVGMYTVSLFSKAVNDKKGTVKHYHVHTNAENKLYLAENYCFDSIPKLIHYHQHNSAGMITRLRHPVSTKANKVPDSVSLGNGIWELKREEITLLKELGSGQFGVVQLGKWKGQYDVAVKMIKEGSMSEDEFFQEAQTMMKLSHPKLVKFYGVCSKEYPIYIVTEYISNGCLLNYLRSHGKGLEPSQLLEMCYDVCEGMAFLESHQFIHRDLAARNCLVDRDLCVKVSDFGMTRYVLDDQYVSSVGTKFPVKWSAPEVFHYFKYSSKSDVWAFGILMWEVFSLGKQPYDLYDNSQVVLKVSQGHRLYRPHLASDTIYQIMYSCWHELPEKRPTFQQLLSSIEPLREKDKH
UniProt P15056, whole entry, looked up: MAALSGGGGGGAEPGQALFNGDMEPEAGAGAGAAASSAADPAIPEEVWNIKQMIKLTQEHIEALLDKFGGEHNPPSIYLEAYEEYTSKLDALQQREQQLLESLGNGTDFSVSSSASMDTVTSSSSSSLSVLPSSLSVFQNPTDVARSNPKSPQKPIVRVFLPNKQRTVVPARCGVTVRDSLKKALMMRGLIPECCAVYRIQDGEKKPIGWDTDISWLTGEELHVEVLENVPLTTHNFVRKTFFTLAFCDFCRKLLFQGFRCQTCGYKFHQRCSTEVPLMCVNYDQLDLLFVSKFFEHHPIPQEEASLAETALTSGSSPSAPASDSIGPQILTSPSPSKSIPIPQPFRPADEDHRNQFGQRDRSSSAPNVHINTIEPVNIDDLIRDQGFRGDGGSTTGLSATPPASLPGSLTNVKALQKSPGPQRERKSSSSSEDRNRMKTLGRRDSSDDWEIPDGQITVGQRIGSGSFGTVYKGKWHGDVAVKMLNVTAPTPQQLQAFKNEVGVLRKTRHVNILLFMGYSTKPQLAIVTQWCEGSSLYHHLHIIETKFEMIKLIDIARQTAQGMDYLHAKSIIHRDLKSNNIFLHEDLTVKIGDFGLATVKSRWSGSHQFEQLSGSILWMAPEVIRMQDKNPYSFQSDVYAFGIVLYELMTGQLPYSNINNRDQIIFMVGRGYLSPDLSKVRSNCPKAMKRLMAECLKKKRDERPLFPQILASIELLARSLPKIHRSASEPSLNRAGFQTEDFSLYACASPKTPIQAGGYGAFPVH
UniProt Q06187: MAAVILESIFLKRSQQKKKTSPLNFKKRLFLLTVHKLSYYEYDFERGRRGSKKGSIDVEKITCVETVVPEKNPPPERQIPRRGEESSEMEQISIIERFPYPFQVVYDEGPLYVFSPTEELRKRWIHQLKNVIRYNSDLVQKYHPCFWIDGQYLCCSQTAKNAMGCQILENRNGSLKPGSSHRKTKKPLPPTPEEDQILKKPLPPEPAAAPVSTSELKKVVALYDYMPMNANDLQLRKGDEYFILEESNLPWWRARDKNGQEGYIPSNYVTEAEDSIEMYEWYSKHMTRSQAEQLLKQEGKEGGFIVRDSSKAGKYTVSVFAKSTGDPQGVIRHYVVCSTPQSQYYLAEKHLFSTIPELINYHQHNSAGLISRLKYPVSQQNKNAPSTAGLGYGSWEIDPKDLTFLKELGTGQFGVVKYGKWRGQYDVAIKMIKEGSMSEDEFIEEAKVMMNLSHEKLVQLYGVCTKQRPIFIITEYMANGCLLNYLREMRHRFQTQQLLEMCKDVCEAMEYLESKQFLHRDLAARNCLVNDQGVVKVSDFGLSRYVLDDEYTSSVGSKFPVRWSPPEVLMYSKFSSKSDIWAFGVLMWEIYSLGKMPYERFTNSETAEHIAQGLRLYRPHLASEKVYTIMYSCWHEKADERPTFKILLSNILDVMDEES
UniProt Q9UQM7, whole entry: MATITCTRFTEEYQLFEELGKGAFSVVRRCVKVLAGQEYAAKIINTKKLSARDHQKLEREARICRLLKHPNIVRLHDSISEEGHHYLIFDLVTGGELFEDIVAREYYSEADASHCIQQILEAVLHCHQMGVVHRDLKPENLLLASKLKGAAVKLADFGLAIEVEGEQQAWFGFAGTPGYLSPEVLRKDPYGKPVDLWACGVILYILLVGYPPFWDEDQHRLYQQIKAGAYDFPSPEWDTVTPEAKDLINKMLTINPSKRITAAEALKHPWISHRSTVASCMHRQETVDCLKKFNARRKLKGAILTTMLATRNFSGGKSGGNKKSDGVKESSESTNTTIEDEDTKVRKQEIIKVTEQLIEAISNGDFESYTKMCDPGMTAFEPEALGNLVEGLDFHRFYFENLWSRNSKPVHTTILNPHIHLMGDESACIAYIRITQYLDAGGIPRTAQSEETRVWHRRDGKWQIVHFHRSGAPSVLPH
UniProt Q00535, whole entry, looked up: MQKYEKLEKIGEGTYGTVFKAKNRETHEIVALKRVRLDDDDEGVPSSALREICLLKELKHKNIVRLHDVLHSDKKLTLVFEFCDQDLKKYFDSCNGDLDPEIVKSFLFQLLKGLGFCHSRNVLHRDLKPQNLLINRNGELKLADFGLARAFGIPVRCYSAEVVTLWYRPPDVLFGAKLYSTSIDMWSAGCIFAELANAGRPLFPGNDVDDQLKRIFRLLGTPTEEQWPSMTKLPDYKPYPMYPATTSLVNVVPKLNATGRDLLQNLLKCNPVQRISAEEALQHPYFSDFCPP
UniProt Q00534, whole entry: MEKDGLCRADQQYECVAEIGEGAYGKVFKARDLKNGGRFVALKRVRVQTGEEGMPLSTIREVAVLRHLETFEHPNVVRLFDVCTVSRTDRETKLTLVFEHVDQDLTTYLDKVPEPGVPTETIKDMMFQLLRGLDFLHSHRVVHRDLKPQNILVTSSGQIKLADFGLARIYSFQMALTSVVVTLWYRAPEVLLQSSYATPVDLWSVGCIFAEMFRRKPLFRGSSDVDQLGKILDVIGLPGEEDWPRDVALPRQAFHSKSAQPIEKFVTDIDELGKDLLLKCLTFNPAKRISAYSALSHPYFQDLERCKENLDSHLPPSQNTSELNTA
UniProt O96017, whole entry: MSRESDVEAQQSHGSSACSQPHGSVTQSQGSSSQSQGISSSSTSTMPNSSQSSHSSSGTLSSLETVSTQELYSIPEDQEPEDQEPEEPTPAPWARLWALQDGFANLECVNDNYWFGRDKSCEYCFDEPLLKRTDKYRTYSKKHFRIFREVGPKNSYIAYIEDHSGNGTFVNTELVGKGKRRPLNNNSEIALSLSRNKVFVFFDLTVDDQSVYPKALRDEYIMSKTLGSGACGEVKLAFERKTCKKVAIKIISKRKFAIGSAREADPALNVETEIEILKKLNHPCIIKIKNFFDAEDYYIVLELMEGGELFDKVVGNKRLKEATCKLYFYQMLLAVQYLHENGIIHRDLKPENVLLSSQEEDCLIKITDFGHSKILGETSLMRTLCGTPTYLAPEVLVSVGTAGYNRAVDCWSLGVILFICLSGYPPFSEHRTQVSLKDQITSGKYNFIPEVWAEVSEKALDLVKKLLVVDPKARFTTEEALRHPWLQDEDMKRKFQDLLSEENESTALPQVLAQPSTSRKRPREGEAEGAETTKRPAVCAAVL
UniProt P07333, whole entry: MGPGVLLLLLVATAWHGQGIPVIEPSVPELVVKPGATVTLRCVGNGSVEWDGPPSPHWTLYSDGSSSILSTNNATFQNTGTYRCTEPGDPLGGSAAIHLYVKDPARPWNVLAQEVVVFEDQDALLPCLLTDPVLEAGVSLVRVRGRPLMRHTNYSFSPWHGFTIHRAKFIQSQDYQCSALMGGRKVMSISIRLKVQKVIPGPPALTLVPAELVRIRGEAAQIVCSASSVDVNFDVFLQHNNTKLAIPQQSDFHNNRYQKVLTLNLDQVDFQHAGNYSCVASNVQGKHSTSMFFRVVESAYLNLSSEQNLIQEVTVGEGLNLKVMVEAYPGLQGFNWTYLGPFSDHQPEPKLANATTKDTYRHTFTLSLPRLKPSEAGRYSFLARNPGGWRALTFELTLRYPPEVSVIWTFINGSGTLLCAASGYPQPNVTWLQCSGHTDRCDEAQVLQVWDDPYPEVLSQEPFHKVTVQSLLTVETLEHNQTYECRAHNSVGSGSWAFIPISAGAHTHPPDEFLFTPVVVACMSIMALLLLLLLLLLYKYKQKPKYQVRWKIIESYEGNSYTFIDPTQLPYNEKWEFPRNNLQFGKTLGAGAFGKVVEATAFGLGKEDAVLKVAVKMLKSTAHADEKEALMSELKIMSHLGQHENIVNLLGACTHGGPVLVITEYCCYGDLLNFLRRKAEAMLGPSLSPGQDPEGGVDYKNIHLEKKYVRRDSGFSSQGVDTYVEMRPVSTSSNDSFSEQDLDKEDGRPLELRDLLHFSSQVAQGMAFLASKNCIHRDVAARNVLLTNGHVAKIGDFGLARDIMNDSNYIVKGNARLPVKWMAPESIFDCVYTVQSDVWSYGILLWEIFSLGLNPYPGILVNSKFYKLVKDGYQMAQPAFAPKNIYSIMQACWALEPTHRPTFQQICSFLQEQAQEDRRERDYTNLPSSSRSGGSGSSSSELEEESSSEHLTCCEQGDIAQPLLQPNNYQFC
UniProt P41240: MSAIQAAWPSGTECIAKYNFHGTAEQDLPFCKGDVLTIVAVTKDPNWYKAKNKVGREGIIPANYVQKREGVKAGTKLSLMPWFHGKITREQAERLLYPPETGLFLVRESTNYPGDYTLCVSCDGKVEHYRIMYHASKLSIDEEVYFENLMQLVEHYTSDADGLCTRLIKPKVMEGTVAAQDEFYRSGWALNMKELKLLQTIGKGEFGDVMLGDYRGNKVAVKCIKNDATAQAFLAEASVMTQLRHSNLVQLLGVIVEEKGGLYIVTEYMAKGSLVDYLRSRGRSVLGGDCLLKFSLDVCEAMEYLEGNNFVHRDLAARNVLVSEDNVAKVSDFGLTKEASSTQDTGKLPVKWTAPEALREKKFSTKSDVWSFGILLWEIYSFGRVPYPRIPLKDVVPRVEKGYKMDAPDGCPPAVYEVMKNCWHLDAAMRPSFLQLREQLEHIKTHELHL

How the values were obtained:
Test in all cases: number of time points (of 5) at which kinase-Nluc abundance scored as decreased, DMSO-normalised (count); higher = more persistent destabilization
Conditions in all cases: K562; 2-18 h
ALK = ALK (UniProt Q9UM73)
ARAF = ARAF (UniProt P10398)
AURKA = AURKA (UniProt O14965)
AURKB = AURKB (UniProt Q96GD4)
AURKC = AURKC (UniProt Q9UQB9)
BLK = BLK (UniProt P51451)
BMX = BMX (UniProt P51813)
BRAF = BRAF (UniProt P15056)
BRAF_V600E = system: BRAF_V600E
BTK = BTK (UniProt Q06187)
CAMK2A = CAMK2A (UniProt Q9UQM7)
CAMK2G = CAMK2G (UniProt Q13555)
CDK10 = CDK10 (UniProt Q15131)
CDK2 = CDK2 (UniProt P24941)
CDK3 = CDK3 (UniProt Q00526)
CDK5 = CDK5 (UniProt Q00535)
CDK6 = CDK6 (UniProt Q00534)
CHEK2 = CHEK2 (UniProt O96017)
CSF1R = CSF1R (UniProt P07333)
CSK = CSK (UniProt P41240)

Row | SMILES | number of time points (ALK) | number of time points (ARAF) | number of time points (AURKA) | number of time points (AURKB) | number of time points (AURKC) | number of time points (BLK) | number of time points (BMX) | number of time points (BRAF) | number of time points (BRAF_V600E) | number of time points (BTK) | number of time points (CAMK2A) | number of time points (CAMK2G) | number of time points (CDK10) | number of time points (CDK2) | number of time points (CDK3) | number of time points (CDK5) | number of time points (CDK6) | number of time points (CHEK2) | number of time points (CSF1R) | number of time points (CSK)
1 | O=c1[nH]nc(Sc2ncc([N+](=O)[O-])s2)n1-c1ccc2c(c1)OCCO2 (2.5 µM) | 0 | 0 | 0 | 0 | 0 | 0 | 0 | 0 | 0 | 0 | 0 | 0 | 0 | 0 | 0 | 0 | 0 | 0 | 0 | 0
2 | Cc1ccc(CNC(=O)N2CCC[C@]3(CCN(Cc4ccc(Cl)c(Cl)c4)C3)C2)cc1 (10 µM) | 0 | 0 | 0 | 0 | 0 | 0 | 0 | 0 | 0 | 0 | 0 | 0 | 0 | 0 | 0 | 0 | 0 | 0 | 0 | 0
3 | CCc1nc(C(N)=O)c(Nc2ccc(N3CCC(N4CCN(C)CC4)CC3)c(OC)c2)nc1NC1CCC(OC)CC1 (stereo not given) [EML4-ALK kinase inhibitor 1] (2.5 µM) | 0 | 0 | 0 | 0 | 0 | 0 | 0 | 0 | 0 | 0 | 0 | 0 | 0 | 0 | 0 | 0 | 0 | 0 | 0 | 0
4 | CNCCOc1ccccc1C(C)(C)Nc1nccn(-c2cc(C(=O)NC3CC3)ccc2C)c1=O [p38α inhibitor 2] (10 µM) | 0 | 0 | 0 | 0 | 0 | 0 | 0 | 0 | 0 | 0 | 0 | 0 | 0 | 0 | 0 | 0 | 0 | 0 | 0 | 0
5 | CNC(=O)c1nnc(NC(=O)C2CC2)cc1Nc1cccc(-c2ncn(C)n2)c1OC [Deucravacitinib] (10 µM) | 0 | 0 | 0 | 0 | 0 | 0 | 0 | 0 | 0 | 0 | 0 | 0 | 0 | 0 | 0 | 0 | 0 | 0 | 0 | 0
6 | COc1ccc(F)cc1C(=O)NCc1ccc(-c2nn([C@@H](C)C(F)(F)F)c(N)c2C(N)=O)cc1 [Pirtobrutinib] (10 µM) | 0 | 0 | 0 | 0 | 0 | 0 | 0 | 0 | 0 | 0 | 0 | 0 | 0 | 0 | 0 | 0 | 0 | 0 | 0 | 0
7 | Cc1ccc(-n2c(-c3ccc(O)cc3O)n[nH]c2=O)cc1 (10 µM) | 1 | 0 | 0 | 0 | 0 | 4 | 2 | 0 | 4 | 0 | 0 | 5 | 0 | 0 | 0 | 1 | 2 | 4 | 5 | 0
8 | O=C1c2c(O)cc(O)cc2O[C@H](c2cc(O)c(O)c(O)c2)[C@H]1O [Dihydromyricetin] (10 µM) | 0 | 0 | 0 | 0 | 0 | 0 | 0 | 0 | 0 | 0 | 0 | 0 | 0 | 0 | 0 | 0 | 0 | 0 | 0 | 0
